Test results published in paper PMC7599071.
These are yes or no findings as the source states them, for the method shown. Binding seen in cells or lysates may run through a third protein. A yes stands for co-enrichment or nearness to the bait. Other partners may have been found.

Chains of the proteins cited; added tags and fusions are not shown.
UniProt Q96EQ9: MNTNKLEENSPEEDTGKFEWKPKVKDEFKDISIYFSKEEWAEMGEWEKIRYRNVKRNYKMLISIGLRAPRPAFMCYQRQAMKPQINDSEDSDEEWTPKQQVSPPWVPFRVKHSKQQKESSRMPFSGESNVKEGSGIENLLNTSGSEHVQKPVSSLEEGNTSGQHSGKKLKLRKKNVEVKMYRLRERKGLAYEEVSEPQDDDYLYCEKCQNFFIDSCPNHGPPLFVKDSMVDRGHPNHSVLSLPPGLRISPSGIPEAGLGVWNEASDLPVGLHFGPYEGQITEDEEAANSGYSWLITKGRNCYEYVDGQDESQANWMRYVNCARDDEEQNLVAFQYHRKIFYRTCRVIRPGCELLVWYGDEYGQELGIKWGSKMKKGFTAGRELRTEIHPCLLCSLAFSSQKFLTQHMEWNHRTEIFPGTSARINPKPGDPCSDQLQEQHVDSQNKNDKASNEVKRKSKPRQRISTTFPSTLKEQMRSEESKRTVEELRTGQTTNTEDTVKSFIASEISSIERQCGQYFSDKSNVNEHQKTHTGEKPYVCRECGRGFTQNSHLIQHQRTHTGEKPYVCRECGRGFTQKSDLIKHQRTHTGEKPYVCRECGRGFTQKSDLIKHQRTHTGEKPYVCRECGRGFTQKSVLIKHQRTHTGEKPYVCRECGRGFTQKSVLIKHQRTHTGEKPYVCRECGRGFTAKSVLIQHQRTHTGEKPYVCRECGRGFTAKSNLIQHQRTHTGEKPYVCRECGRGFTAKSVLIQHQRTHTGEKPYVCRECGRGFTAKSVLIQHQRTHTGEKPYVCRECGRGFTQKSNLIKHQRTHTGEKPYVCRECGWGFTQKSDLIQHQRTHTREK

Target: PRDM9 (endogenous in mouse testis, B6 strain) (mouse (endogenous in B6 testis)) (UniProt Q96EQ9)
Experiment: affinity purification with mass spectrometry; nuclear extracts of testes from 12 to 13 dpp B6 mice, without (rep1) or after incubation with benzonase (rep2); IP with anti-PRDM9 antibody or normal rabbit serum (mock); mass spectrometry

binding: binds
B1: HELLS (endogenous in mouse testis) (protein, UniProt Q60848 1-821)
chain: MAEQTEPAVITPAMLEEEEQLEAAGLEKERKMLEEAQKSWDRESTEIRYRRLQHLLEKSNIYSKFLLTKMEQQQLEEQKKKEKLEKKKRSLKLTEGKSLVDGNGEKPVMKKKRGREDESYNISEVMSKEEILSVAKKHKDNEDESSSTTSLCVEDIQKNKDSNSMIKDRLSQTVRQNSKFFFDPVRKCNGQPVPFQQPKHFTGGVMRWYQVEGMEWLRMLWENGINGILADEMGLGKTVQCIATIALMIQRGVPGPFLVCGPLSTLPNWMAEFKRFTPEIPTLLYHGTREDRRKLVKNIHKRQGTLQIHPVVVTSFEIAMRDQNALQHCYWKYLIVDEGHRIKNMKCRLIRELKRFNADNKLLLTGTPLQNNLSELWSLLNFLLPDVFDDLKSFESWFDITSLSETAEDIIAKEREQNVLHMLHQILTPFLLRRLKSDVALEVPPKREVVVYAPLCNKQEIFYTAIVNRTIANMFGSCEKETVELSPTGRPKRRSRKSINYSELDQFPSELEKLISQIQPEVNRERTVVEGNIPIESEVNLKLRNIMMLLRKCCNHPYMIEYPIDPVTQEFKIDEELVTNSGKFLILDRMLPELKKRGHKVLVFSQMTSMLDILMDYCHLRNFIFSRLDGSMSYSEREKNIYSFNTDPDVFLFLVSTRAGGLGINLTAADTVIIYDSDWNPQSDLQAQDRCHRIGQTKPVVVYRLVTANTIDQKIVERAAAKRKLEKLIIHKNHFKGGQSGLSQSKNFLDAKELMELLKSRDYEREVKGSREKVISDEDLELLLDRSDLIDQMKASRPIKGKTGIFKILENSEDSSAECLF
